Data on 2 substances can be found in paper PMC5531254, “MRE11 stability is regulated by CK2-dependent interaction with R2TP complex” (Oncogene, 2017).

Sequences of proteins named here, by UniProt entry; tags and fusion partners are left off. A change or cut given only in a name is not applied to a line headed by its entry.
UniProt Q9NWS0: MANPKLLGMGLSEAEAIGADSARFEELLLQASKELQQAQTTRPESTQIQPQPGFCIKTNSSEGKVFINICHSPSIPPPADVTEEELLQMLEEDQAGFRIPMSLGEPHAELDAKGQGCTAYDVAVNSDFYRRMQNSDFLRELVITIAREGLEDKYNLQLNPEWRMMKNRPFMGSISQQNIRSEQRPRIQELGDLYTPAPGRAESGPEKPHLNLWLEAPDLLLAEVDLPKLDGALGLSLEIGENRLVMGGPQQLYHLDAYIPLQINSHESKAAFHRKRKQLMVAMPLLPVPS
UniProt O60934: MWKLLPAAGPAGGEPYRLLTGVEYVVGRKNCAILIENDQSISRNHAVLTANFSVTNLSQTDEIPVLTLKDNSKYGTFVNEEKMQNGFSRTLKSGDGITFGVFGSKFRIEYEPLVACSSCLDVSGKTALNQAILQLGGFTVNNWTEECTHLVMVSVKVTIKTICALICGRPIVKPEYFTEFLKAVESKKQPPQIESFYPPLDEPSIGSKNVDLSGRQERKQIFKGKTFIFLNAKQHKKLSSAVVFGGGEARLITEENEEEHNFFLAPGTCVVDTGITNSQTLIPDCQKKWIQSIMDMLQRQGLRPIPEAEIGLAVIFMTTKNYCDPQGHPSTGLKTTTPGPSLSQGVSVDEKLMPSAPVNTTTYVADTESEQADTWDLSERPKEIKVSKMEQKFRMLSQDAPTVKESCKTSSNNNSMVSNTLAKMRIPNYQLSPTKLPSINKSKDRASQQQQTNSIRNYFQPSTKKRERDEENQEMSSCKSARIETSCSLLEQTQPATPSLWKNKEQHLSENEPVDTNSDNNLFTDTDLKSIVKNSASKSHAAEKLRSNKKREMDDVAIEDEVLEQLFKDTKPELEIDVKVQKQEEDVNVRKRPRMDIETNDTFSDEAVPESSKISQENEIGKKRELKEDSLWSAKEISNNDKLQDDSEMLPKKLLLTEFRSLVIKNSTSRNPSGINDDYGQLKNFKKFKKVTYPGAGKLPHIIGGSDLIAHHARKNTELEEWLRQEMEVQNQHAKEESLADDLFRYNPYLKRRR
UniProt Q92878: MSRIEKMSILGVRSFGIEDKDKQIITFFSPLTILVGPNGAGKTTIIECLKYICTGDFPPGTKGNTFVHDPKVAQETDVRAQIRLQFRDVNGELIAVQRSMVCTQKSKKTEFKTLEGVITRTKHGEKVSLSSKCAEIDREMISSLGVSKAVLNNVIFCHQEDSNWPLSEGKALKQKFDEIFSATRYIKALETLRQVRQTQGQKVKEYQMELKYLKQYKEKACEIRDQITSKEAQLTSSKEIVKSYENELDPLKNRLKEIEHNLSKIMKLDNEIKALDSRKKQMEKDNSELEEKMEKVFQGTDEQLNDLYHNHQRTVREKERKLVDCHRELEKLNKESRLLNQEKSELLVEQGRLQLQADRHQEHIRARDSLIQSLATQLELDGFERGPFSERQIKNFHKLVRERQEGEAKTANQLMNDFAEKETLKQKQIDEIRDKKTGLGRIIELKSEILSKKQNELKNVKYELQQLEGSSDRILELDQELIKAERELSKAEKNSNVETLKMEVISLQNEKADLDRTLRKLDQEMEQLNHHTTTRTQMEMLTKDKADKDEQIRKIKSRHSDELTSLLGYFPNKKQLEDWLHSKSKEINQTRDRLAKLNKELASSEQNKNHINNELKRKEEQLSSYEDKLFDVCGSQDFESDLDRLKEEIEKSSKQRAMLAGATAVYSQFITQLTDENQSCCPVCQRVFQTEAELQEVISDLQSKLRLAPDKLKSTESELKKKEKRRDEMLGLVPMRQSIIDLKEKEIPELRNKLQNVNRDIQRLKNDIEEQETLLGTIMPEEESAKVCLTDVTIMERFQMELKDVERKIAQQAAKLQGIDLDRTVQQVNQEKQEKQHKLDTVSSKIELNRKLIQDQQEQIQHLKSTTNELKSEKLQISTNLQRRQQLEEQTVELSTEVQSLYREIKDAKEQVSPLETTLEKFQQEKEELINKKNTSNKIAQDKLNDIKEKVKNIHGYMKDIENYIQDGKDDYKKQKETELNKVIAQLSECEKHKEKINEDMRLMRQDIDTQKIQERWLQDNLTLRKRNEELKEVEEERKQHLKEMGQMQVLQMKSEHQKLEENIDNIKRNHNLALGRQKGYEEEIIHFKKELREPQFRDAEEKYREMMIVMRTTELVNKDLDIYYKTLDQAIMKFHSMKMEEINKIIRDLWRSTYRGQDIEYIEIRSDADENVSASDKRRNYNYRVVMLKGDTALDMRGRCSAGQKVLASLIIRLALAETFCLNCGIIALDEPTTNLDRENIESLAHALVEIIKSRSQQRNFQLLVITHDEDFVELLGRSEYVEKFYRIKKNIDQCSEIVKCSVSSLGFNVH

In assay [1] the target is FLAG-tagged wild-type PIH1D1 (UniProt Q9NWS0). Briefly: co-IP; HEK293T cells transfected with FLAG PIH1D1 WT or KA; IP buffer (50 mM Tris-HCl pH 7.5, 150 mM NaCl, 1% Triton X-100, EtBr 50 μg/ml), anti-FLAG M2 affinity gel 2 h; immunoblot for RAD50, MRE11, NBS1.
Assay [2] has as its target FLAG-tagged PIH1D1 K64A phospho-binding mutant (UniProt Q9NWS0). The description is as above.

These are yes or no findings as the source states them, for the method shown. Binding seen in cells or lysates may run through a third protein. Some entries that bind do so weakly or less than the wild type.

As for “NBS1 (endogenous, HEK293T) (from UniProt O60934 1-754)”, the binding result is given as “binds” in assay [1] and “no binding” in assay [2].
As for “RAD50 (endogenous, HEK293T) (from UniProt Q92878 1-1312)”, the values for the binding result in assay [1] and in assay [2] were “binds” and “no binding”, respectively.
